According to patent US20100069244A1, “Pyridine Compounds for Combating Pests” (priority 2006, published 2010):
Some entries share one result that the patent states for a list of compounds. At least one structure is not confirmed: it was looked up by name or label, or the drawing left a doubt.

What was measured:
Type in all cases: in vivo
[1] = system: Green Peach Aphid (Myzus persicae); assay: Green peach aphid, pepper leaf dip; conditions: 300 ppm; pepper leaves dipped; after 5 days
[2] = system: Cotton Aphid (Aphis gossypii); assay: Activity against cotton aphid, cotyledon dip; conditions: 300 ppm; cotton cotyledons dipped; mortality counts after 5 days
[3] = system: Silverleaf Whitefly (Bemisia argentifolii); assay: Activity against silverleaf whitefly, cotton cotyledon dip; conditions: 300 ppm; whitefly adults on dipped cotton cotyledons; 3 days after treatment
[4] = system: Cowpea Aphid (Aphis craccivora); assay: Activity against cowpea aphid, spray on potted cowpea plants; conditions: 300 ppm; sprayed cowpea plants; population reduction recorded after 24, 72 and 120 hours

## CC(CN1CC[C@H]1COc1ccc(Cl)nc1)OC(C)(C)C (some centres unmarked) [Ia-148]
[1]
  mortality in comparison with untreated controls: over 90%
[2]
  mortality in comparison with untreated controls: over 90%
[3]
  mortality in comparison with untreated controls: over 75%

## CC(C)(C)CN1CC[C@H]1COc1ccc(Cl)nc1 [Ia-176]
[1]
  mortality in comparison with untreated controls: over 90%
[2]
  mortality in comparison with untreated controls: over 90%
[3]
  mortality in comparison with untreated controls: over 75%

## Clc1ccc(OC[C@@H]2CCCN2CC2=CCSC2)cn1 [Ib-36]
[1]
  mortality in comparison with untreated controls: over 90%
[3]
  mortality in comparison with untreated controls: over 75%

## Clc1cncc(OCC2CCN2Cc2ccccn2)c1 (centres unmarked) [Ia-214]
[1]
  mortality in comparison with untreated controls: over 90%
[2]
  mortality in comparison with untreated controls: over 90%
[3]
  mortality in comparison with untreated controls: over 75%

## Clc1ccc(OC[C@@H]2CCCN2CC2CCCSC2)cn1 (some centres unmarked) [Ib-29]
[3]
  mortality in comparison with untreated controls: over 75%

## CC(=Cc1ccccc1)CN1CCC1COc1ccc(Cl)nc1 (centres unmarked) [Ia-185]
[1]
  mortality in comparison with untreated controls: over 90%
[4]
  mortality in comparison with untreated controls: over 90%
[2]
  mortality in comparison with untreated controls: over 90%

## Fc1ccc(N2CC[C@H]2COc2cncc(Cl)c2)cc1 [Ia-166]
[1]
  mortality in comparison with untreated controls: over 90%
[4]
  mortality in comparison with untreated controls: over 90%
[2]
  mortality in comparison with untreated controls: over 90%

## Oc1cccc(CN2CC[C@H]2COc2cnc(Cl)c(Cl)c2)c1 [Ia-33]
[1]
  mortality in comparison with untreated controls: over 90%
[2]
  mortality in comparison with untreated controls: over 90%
[3]
  mortality in comparison with untreated controls: over 75%

## Clc1cncc(OC[C@@H]2CCN2Cc2c(Cl)cccc2Cl)c1 [Ia-74]
[1]
  mortality in comparison with untreated controls: over 90%
[4]
  mortality in comparison with untreated controls: over 90%
[2]
  mortality in comparison with untreated controls: over 90%

## Clc1ccc(/C=C/CN2CC[C@H]2COc2cncc(Cl)c2)cc1 [Ia-223]
[1]
  mortality in comparison with untreated controls: over 90%
[4]
  mortality in comparison with untreated controls: over 90%
[2]
  mortality in comparison with untreated controls: over 90%

## CN(C)CC1(CN2CCC[C@H]2COc2ccc(Cl)nc2)CCOC1 (some centres unmarked) [Ib-32]
[3]
  mortality in comparison with untreated controls: over 75%

## Cc1ccc(CN2CC[C@H]2COc2cncc(Cl)c2)cc1 [Ia-107]
[1]
  mortality in comparison with untreated controls: over 90%
[4]
  mortality in comparison with untreated controls: over 90%
[2]
  mortality in comparison with untreated controls: over 90%

## Cc1ccsc1C=CCN1CCC1COc1cncc(Cl)c1 (centres unmarked) [Ia-189]
[1]
  mortality in comparison with untreated controls: over 90%
[4]
  mortality in comparison with untreated controls: over 90%
[2]
  mortality in comparison with untreated controls: over 90%

## CCC(c1ccccc1)N1CCC1COc1cncc(Cl)c1 (mixture of isomers) [Ia-216]
[1]
  mortality in comparison with untreated controls: over 90%
[4]
  mortality in comparison with untreated controls: over 90%
[2]
  mortality in comparison with untreated controls: over 90%

## CC(C)=CCCC(C)CN1CC[C@H]1COc1ccc(Cl)nc1 (some centres unmarked) [Ia-147]
[1]
  mortality in comparison with untreated controls: over 90%
[3]
  mortality in comparison with untreated controls: over 75%

## Clc1cncc(OC[C@@H]2CCN2Cc2ccccc2OCc2ccccc2)c1 [Ia-25]
[1]
  mortality in comparison with untreated controls: over 90%
[4]
  mortality in comparison with untreated controls: over 90%
[2]
  mortality in comparison with untreated controls: over 90%

## CC(C)(C)c1cc(CN2CCC2COc2cncc(Cl)c2)on1 (centres unmarked) [Ia-208]
[1]
  mortality in comparison with untreated controls: over 90%
[4]
  mortality in comparison with untreated controls: over 90%
[2]
  mortality in comparison with untreated controls: over 90%

## CC(C)(C)CCCN1CC[C@H]1COc1ccc(Cl)nc1 [Ia-179]
[1]
  mortality in comparison with untreated controls: over 90%
[2]
  mortality in comparison with untreated controls: over 90%
[3]
  mortality in comparison with untreated controls: over 75%

## COc1cccc(N2CC[C@H]2COc2cncc(Cl)c2)c1 [Ia-170]
[1]
  mortality in comparison with untreated controls: over 90%
[4]
  mortality in comparison with untreated controls: over 90%
[2]
  mortality in comparison with untreated controls: over 90%

## CCCCCCC(C)N1CCC1COc1cncc(Cl)c1 (mixture of isomers) [Ia-220]
[1]
  mortality in comparison with untreated controls: over 90%
[4]
  mortality in comparison with untreated controls: over 90%
[2]
  mortality in comparison with untreated controls: over 90%

## COc1ccccc1CN1CC[C@H]1COc1ccc(Cl)nc1 [Ia-66]
[1]
  mortality in comparison with untreated controls: over 90%
[4]
  mortality in comparison with untreated controls: over 90%
[2]
  mortality in comparison with untreated controls: over 90%

## Cn1cccc1CN1CCC[C@H]1COc1ccc(Cl)nc1 [Ib-30]
[3]
  mortality in comparison with untreated controls: over 75%

## Clc1ccc(OC[C@@H]2CCCN2CC2CCCOC2)cn1 (some centres unmarked) [Ib-34]
[3]
  mortality in comparison with untreated controls: over 75%

## CN(C)c1ncc(CN2CCC2COc2cncc(Cl)c2)s1 (centres unmarked) [Ia-209]
[1]
  mortality in comparison with untreated controls: over 90%
[4]
  mortality in comparison with untreated controls: over 90%
[2]
  mortality in comparison with untreated controls: over 90%

## CCCCC/C=C\CCCN1CC[C@H]1COc1cncc(Cl)c1 [Ia-138]
[1]
  mortality in comparison with untreated controls: over 90%
[3]
  mortality in comparison with untreated controls: over 75%

## FC(F)(F)c1c(CN2CCC2COc2cncc(Cl)c2)cnn1-c1ccc(Cl)cc1 (centres unmarked) [Ia-207]
[1]
  mortality in comparison with untreated controls: over 90%
[4]
  mortality in comparison with untreated controls: over 90%
[2]
  mortality in comparison with untreated controls: over 90%

## Fc1cc(Br)ccc1CN1CC[C@H]1COc1cncc(Cl)c1 [Ia-110]
[1]
  mortality in comparison with untreated controls: over 90%
[4]
  mortality in comparison with untreated controls: over 90%
[2]
  mortality in comparison with untreated controls: over 90%

## Cc1ccsc1/C=C/CN1CC[C@H]1COc1ccc(Cl)nc1 [Ia-183]
[1]
  mortality in comparison with untreated controls: over 90%
[2]
  mortality in comparison with untreated controls: over 90%
[3]
  mortality in comparison with untreated controls: over 75%

## CCCN1CC[C@H]1COc1cncc(Cl)c1 [Ia-162]
[1]
  mortality in comparison with untreated controls: over 90%
[2]
  mortality in comparison with untreated controls: over 90%
[3]
  mortality in comparison with untreated controls: over 75%

## Clc1cncc(OC[C@@H]2CCN2Cc2ccccc2)c1 [Ia-3]
[1]
  mortality in comparison with untreated controls: over 90%
[4]
  mortality in comparison with untreated controls: over 90%
[2]
  mortality in comparison with untreated controls: over 90%

## Fc1ccc(Br)cc1CN1CC[C@H]1COc1ccc(Cl)nc1 [Ia-101]
[1]
  mortality in comparison with untreated controls: over 90%
[4]
  mortality in comparison with untreated controls: over 90%
[2]
  mortality in comparison with untreated controls: over 90%

## Clc1cncc(OC[C@@H]2CCN2Cc2cc(Cl)ccc2Cl)c1 [Ia-28]
[1]
  mortality in comparison with untreated controls: over 90%
[4]
  mortality in comparison with untreated controls: over 90%
[2]
  mortality in comparison with untreated controls: over 90%

## CC(C)C(=Cc1ccco1)CN1CCC1COc1cncc(Cl)c1 (centres unmarked) [Ia-191]
[1]
  mortality in comparison with untreated controls: over 90%
[4]
  mortality in comparison with untreated controls: over 90%
[2]
  mortality in comparison with untreated controls: over 90%

## O=[N+]([O-])c1cccc(CN2CC[C@H]2COc2ccc(Cl)nc2)c1 [Ia-8]
[1]
  mortality in comparison with untreated controls: over 90%
[2]
  mortality in comparison with untreated controls: over 90%
[3]
  mortality in comparison with untreated controls: over 75%

## CC(=Cc1ccccc1)CN1CCC1COc1cncc(Cl)c1 (centres unmarked) [Ia-192]
[1]
  mortality in comparison with untreated controls: over 90%
[4]
  mortality in comparison with untreated controls: over 90%
[2]
  mortality in comparison with untreated controls: over 90%

## CC(C)CN1CC[C@H]1COc1cncc(Cl)c1 [Ia-1]
[1]
  mortality in comparison with untreated controls: over 90%
[4]
  mortality in comparison with untreated controls: over 90%
[2]
  mortality in comparison with untreated controls: over 90%

## Nc1ccc(CN2CC[C@H]2COc2ccc(Cl)nc2)cc1 [Ia-18]
[1]
  mortality in comparison with untreated controls: over 90%
[3]
  mortality in comparison with untreated controls: over 75%

## Oc1ccc(CN2CC[C@H]2COc2cncc(Cl)c2)cc1 [Ia-95]
[1]
  mortality in comparison with untreated controls: over 90%
[2]
  mortality in comparison with untreated controls: over 90%
[3]
  mortality in comparison with untreated controls: over 75%

## Fc1ccccc1N1CC[C@H]1COc1cncc(Cl)c1 [Ia-168]
[1]
  mortality in comparison with untreated controls: over 90%
[4]
  mortality in comparison with untreated controls: over 90%
[2]
  mortality in comparison with untreated controls: over 90%

## CCCCCCCCCCCN1CC[C@H]1COc1ccc(Cl)nc1 [Ia-127]
[1]
  mortality in comparison with untreated controls: over 90%
[3]
  mortality in comparison with untreated controls: over 75%

## CCC(CN1CC[C@H]1COc1ccc(Cl)nc1)OC(C)=O (some centres unmarked) [Ia-5]
[3]
  mortality in comparison with untreated controls: over 75%

## Clc1cncc(OCC2CCN2Cc2ccco2)c1 (centres unmarked) [Ia-206]
[1]
  mortality in comparison with untreated controls: over 90%
[4]
  mortality in comparison with untreated controls: over 90%
[2]
  mortality in comparison with untreated controls: over 90%

## Cc1ccccc1CN1CC[C@H]1COc1cncc(Cl)c1 [Ia-32]
[1]
  mortality in comparison with untreated controls: over 90%
[4]
  mortality in comparison with untreated controls: over 90%
[2]
  mortality in comparison with untreated controls: over 90%

## CC(C)(C)c1ccc(CN2CC[C@H]2COc2cncc(Cl)c2)cc1 [Ia-53]
[1]
  mortality in comparison with untreated controls: over 90%
[4]
  mortality in comparison with untreated controls: over 90%
[2]
  mortality in comparison with untreated controls: over 90%

## COc1ccccc1N1CC[C@H]1COc1cncc(Cl)c1 [Ia-171]
[1]
  mortality in comparison with untreated controls: over 90%
[4]
  mortality in comparison with untreated controls: over 90%
[2]
  mortality in comparison with untreated controls: over 90%

## Fc1ccc(CN2CC[C@H]2COc2cncc(Cl)c2)cc1Br [Ia-114]
[1]
  mortality in comparison with untreated controls: over 90%
[4]
  mortality in comparison with untreated controls: over 90%
[2]
  mortality in comparison with untreated controls: over 90%

## CC(C)CCN1CC[C@H]1COc1cncc(Cl)c1 [Ia-136]
[1]
  mortality in comparison with untreated controls: over 90%
[3]
  mortality in comparison with untreated controls: over 75%

## Clc1cncc(OC[C@@H]2CCN2c2ccccc2)c1 [Ia-164]
[1]
  mortality in comparison with untreated controls: over 90%
[4]
  mortality in comparison with untreated controls: over 90%
[2]
  mortality in comparison with untreated controls: over 90%

## O=[N+]([O-])c1cccc(CN2CC[C@H]2COc2cncc(Cl)c2)c1 [Ia-12]
[1]
  mortality in comparison with untreated controls: over 90%
[4]
  mortality in comparison with untreated controls: over 90%
[2]
  mortality in comparison with untreated controls: over 90%
